Laboratory results reported in the supplement of paper PMC9233669.
This sample is rich in variants without activity.

Assays:
biotinyl-Leu-oxazolone = assay: self-aminoacylation, catalytic enhancement (BLO) (fold over background); higher = more active; k-Seq, kA / k0A0; sequences stand for … in GGGAAUGGAUCCACAUCUACGAAUUC…UUCACUGCAGACUUGACGAAGCUG
Outline: (§1)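 Working in 50 μL HEPES/NaCl/KCl/MgCl2/CaCl2 buffer with 5% acetonitrile at pH 6.9–7.0, mutagenized RNA pools (0.43 μM; 21-nt variable region) were reacted with 2–1250 μM of each biotinyl-aminoacyl-oxazolone for 90 minutes at room temperature. Streptavidin capture followed, with quantification by triplicate qPCR and Illumina sequencing. Catalytic enhancement is reported as median kA over the uncatalyzed rate, the low-activity peak of a bimodal Gaussian fit to the data.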

biotinyl-Ile-oxazolone = assay: self-aminoacylation, catalytic enhancement (BIO) (fold over background); higher = more active; k-Seq, kA / k0A0; sequences stand for … in GGGAAUGGAUCCACAUCUACGAAUUC…UUCACUGCAGACUUGACGAAGCUG
Outline: as §1

biotinyl-Val-oxazolone = assay: self-aminoacylation, catalytic enhancement (BVO) (fold over background); higher = more active; k-Seq, kA / k0A0; sequences stand for … in GGGAAUGGAUCCACAUCUACGAAUUC…UUCACUGCAGACUUGACGAAGCUG
Outline: as §1

biotinyl-Met-oxazolone = assay: self-aminoacylation, catalytic enhancement (BMO) (fold over background); higher = more active; k-Seq, kA / k0A0; sequences stand for … in GGGAAUGGAUCCACAUCUACGAAUUC…UUCACUGCAGACUUGACGAAGCUG
Outline: as §1

Sequence | self-aminoacylation (biotinyl-Leu-oxazolone) | self-aminoacylation (biotinyl-Ile-oxazolone) | self-aminoacylation (biotinyl-Val-oxazolone) | self-aminoacylation (biotinyl-Met-oxazolone)
AAGCGUGCUAAUAGUCGCAAG [Fam3.1 aminoacylation ribozyme variant] | 1.85 | 2.02 | 2.05 | 
AAGGAUGCUAAUAGUCGCAAG [Fam3.1 aminoacylation ribozyme variant] | 1.18 | 1.48 | 1.15 | 1.67
AAGUCUGCUAAUAGUCGCAAG [Fam3.1 aminoacylation ribozyme variant] | 1.66 | 1.47 | 1.49 | 
AAGUCUGCUAAUAGUGGCAAG [Fam3.1 aminoacylation ribozyme variant] | 0.866 | 0.678 | 0.765 | 0.98
AAGUUUGCAAAUAGUCGCGAG [Fam3.1 aminoacylation ribozyme variant] | 1.3 | 1.41 | 1.44 | 1.3
AAGUUUGCCAAUAGUCGCAAU [Fam3.1 aminoacylation ribozyme variant] | 1.8 | 2 | 1.5 | 
AAGUUUGCUAAUAGUCGCGAA [Fam3.1 aminoacylation ribozyme variant] | 1.47 | 1.95 | 1.66 | 1.93
AAGUUUGCUAAUAGUCGGAAU [Fam3.1 aminoacylation ribozyme variant] | 1.41 | 1.37 | 1.41 | 1.5
AAGUUUGCUAAUAUCCGCAAG [Fam3.1 aminoacylation ribozyme variant] | 0.845 | 0.911 | 0.886 | 0.725
AAGUUUGCUAAUUGUCGCAAA [Fam3.1 aminoacylation ribozyme variant] | 1.81 | 1.48 | 1.27 | 1.51
AAGUUUGCUAGUAGUCGCACG [Fam3.1 aminoacylation ribozyme variant] | 1.12 | 1.06 | 1.05 | 0.765
AAUCACCUCGGUCAUCGGGUG [Fam2.2 aminoacylation ribozyme variant] | 4.99 | 4.07 | 5.23 | 4.76
AAUGUUGCUAAUAGUCGCAAG [Fam3.1 aminoacylation ribozyme variant] | 1.39 | 1.71 | 1.53 | 1.48
AAUUGUGCUAAUAGUCGCAAG [Fam3.1 aminoacylation ribozyme variant] | 2.18 | 1.93 | 1.75 | 2.02
ACACACUUCAAGGAAUCGGUC [Fam1B.1 aminoacylation ribozyme variant] | 1.54 | 1.33 | 1.1 | 1.21
ACACAGUUCAAGCAAUCGGUC [Fam1B.1 aminoacylation ribozyme variant] | 1.71 | 1.8 | 1.76 | 1.74
ACGCACUUCAAGCAAUCGGUC [Fam1B.1 aminoacylation ribozyme variant] | 1.63 | 1.53 | 1.35 | 1.58
ACGUUUGCUAAUAGUCGCAAA [Fam3.1 aminoacylation ribozyme variant] | 1.64 |  | 1.53 | 1.54
ACUACCCUGGUCAUCGGGUGA [Fam2.1 aminoacylation ribozyme variant] | 50.1 | 20.6 | 20.9 | 48
AGGUAUGCUAAUAGUCGCAAG [Fam3.1 aminoacylation ribozyme variant] | 1.83 | 1.81 | 1.53 | 1.84
AUAAUUCAAACAAUCGGUCUG [Fam1A.1 aminoacylation ribozyme variant] | 0.779 | 0.804 | 0.749 | 0.677
AUGACCCUGGUCAACGAGUGA [Fam2.1 aminoacylation ribozyme variant] | 6.02 | 3.48 | 3.52 | 5.77
CCACCCUUCAAGCAAUCGGGC [Fam1B.1 aminoacylation ribozyme variant] | 1.83 |  |  | 1.56
CCCCACGUCAAGCAAUCGGUC [Fam1B.1 aminoacylation ribozyme variant] | 1.33 | 1.58 |  | 1.39
CUUCACCUAGGUCAUCGGCUG [Fam2.2 aminoacylation ribozyme variant] | 1.68 | 1.53 |  | 1.53
GAGUUUCCUAAUAGUCGCAAG [Fam3.1 aminoacylation ribozyme variant] | 1.88 |  |  | 1.85
